The entries are a selection whose mix differs from that of the whole data set. For some of these results: At the low end of the ranking the order means little.
How the values were obtained:
Experiment in all cases: DAPPL (digital affinity profiling via proximity ligation, sequencing)
Conditions in all cases: 10 mM Tris-HCl pH 7.5, 50 mM NaCl, 1 mM DTT, 4% glycerol, room temperature, 30 min; GST-TFs on glutathione beads, 16-mer random dsDNA library, 0.1% …; high values mean tight binding; double strand, one strand shown; scale: fold enrichment (6-mer frequency, TF over GST control)
FLI1 = target: T1, FLI1 (UniProt Q01543)
T1 sequence: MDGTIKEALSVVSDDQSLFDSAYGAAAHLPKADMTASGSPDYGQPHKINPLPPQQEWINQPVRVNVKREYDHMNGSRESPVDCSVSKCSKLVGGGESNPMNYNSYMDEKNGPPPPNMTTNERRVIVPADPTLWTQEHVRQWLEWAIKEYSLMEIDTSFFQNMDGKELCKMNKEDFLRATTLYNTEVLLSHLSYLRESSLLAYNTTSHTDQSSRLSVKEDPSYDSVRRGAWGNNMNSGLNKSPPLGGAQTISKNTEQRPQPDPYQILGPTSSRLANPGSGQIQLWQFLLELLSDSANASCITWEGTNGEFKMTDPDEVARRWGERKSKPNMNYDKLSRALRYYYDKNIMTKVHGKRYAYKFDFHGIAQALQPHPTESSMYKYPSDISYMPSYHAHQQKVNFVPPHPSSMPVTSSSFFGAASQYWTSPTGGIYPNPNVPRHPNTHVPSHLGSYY

By UniProt entry, the sequences of proteins in these tests, tags left out. Where a name states a change or a piece, a line headed by the entry shows the natural chain unless it says otherwise.
UniProt Q01892: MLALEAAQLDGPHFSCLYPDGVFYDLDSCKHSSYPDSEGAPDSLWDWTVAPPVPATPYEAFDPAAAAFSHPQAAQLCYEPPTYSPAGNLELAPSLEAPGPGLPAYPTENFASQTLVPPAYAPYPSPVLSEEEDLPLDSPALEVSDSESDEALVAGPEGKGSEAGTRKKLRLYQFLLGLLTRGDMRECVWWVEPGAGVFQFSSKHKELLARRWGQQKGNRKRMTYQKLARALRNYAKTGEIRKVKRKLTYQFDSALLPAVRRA
UniProt P41161: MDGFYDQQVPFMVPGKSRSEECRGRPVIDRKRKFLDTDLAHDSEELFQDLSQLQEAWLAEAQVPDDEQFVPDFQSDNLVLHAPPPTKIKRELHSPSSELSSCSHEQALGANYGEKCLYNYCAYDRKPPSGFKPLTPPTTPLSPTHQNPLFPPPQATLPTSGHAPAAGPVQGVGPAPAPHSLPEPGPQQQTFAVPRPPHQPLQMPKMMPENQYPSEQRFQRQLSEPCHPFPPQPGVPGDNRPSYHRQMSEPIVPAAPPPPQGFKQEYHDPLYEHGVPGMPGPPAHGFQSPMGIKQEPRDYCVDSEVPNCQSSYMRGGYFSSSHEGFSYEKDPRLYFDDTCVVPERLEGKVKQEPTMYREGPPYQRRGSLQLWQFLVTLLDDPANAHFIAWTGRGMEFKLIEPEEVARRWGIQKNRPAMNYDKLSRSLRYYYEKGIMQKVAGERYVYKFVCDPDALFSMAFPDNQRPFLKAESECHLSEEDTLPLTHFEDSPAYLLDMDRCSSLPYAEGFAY
UniProt Q99607: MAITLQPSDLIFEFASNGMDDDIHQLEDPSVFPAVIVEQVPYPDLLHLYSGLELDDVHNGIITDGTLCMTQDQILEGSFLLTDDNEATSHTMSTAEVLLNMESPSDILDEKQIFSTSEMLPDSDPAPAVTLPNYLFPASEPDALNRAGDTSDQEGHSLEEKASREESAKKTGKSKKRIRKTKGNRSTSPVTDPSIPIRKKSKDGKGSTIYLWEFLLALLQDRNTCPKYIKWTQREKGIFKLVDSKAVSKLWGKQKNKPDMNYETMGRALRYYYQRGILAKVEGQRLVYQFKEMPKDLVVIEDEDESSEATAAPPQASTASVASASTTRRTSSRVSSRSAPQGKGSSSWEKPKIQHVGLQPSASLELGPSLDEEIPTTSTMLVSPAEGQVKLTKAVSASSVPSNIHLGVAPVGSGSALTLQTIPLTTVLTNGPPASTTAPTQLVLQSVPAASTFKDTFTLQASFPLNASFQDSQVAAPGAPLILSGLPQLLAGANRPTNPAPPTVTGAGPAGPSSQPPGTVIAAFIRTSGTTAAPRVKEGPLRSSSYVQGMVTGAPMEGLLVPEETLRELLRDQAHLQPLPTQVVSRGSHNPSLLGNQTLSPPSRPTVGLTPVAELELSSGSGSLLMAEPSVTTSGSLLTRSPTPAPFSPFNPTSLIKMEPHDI

EHF = target: T2, EHF (UniProt Q9NZC4)
T2 sequence: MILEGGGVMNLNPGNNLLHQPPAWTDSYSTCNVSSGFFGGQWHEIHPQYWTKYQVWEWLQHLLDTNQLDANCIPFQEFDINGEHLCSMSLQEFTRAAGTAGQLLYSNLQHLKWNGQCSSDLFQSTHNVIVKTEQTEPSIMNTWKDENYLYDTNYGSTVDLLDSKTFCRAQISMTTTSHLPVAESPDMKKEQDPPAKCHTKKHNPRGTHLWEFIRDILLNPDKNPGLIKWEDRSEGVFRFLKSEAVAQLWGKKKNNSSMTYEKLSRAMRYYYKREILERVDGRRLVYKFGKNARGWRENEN

SPIB = SPIB (UniProt Q01892)
ETV5 = ETV5 (UniProt P41161)
ETV3L = target: T3, ETV3L (UniProt Q6ZN32)
T3 sequence: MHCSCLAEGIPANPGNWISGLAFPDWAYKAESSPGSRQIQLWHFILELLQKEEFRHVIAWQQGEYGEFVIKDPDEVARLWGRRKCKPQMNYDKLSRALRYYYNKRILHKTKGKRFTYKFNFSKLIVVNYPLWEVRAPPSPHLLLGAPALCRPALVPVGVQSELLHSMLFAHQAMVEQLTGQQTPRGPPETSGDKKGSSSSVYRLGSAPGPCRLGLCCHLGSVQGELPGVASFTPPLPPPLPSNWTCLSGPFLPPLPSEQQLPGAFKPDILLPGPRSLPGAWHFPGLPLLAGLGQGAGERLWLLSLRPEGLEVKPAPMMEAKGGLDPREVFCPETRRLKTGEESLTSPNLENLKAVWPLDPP

ELF4 = ELF4 (UniProt Q99607)

Sequence	binding signal (FLI1)	binding signal (EHF)	binding signal (SPIB)	binding signal (ETV5)	binding signal (ETV3L)	binding signal (ELF4)
GATAAA	0.967	0.924	1.04	0.987	0.927	
CTCGTC	1.49		1.39	1.31	1.24	
GTACTA	1.16	1.14	1.1	1.14		
GAATGA	0.941	0.99	0.898	0.85	0.99	
ACCTGT	0.964	0.957	0.957	0.994	0.96	
ACCGCC	1.38	1.36	1.13	1.23		
TTTGTT	1.26			1.25	1.27	
AACCGA	0.982	0.954		0.953		
TATAAA	1.17		1.3	1.18	1.15	
AACAGA	0.974		0.907	0.948	0.969	
CACAAG	1.2	1.14		1.13		
ACACTA	1.11	1.15		1.14		
CCCTCT	1.31		1.56	1.33	1.3	
TGCCAC	1.21	1.23		1.14	1.28	
AACCCT	1.31			1.31	1.24	
TAACGT	0.991		0.966	0.932	0.97	
AGTTAA	1.02	1.08		1.1	0.993	
TCGCGG	0.997	0.977		0.964	1.04	
ACTCGG	1.07		0.956	0.962	0.968	
CGTACG	1	0.959		0.984		
ATTATC	1.35	1.28	1.27	1.26		
CCAGAA	0.881	0.977	0.95	0.988	0.986	
ATATTC				1.27		1.29
ACTCAA				1.16		1.16
TATATG				1.34		1.31
TATCTT				1.22		1.24

An excerpt of these results, with each value named:
GATAAA
  binding signal (FLI1): 0.967; binding signal (EHF): 0.924; binding signal (SPIB): 1.04; binding signal (ETV5): 0.987; binding signal (ETV3L): 0.927
TTTGTT
  binding signal (FLI1): 1.26; binding signal (ETV5): 1.25; binding signal (ETV3L): 1.27

— publication PMC7862700
